From patent US7074812B2, “Development of muscle mass in a mammal” (Nutraleutical Development Corporation, priority 2002, dated 2006)

Tested on: healthy male mice
Conditions: 60 micrograms nicotine/ml drinking water

Compound: CN1CCCC1c1cccnc1 (centres unmarked) [Nicotine, nicotine]
- change of food consumption over time: does not show significant change over time
- food consumed less in days 15~21 compared to days 1~7 (control 30 grams less): 6 grams
